# Measurements from PubChem BioAssay AID1439 (NMMLSC, 2008).
# By UniProt entry, the sequences of proteins in these tests, tags left out.
# UniProt P09471, whole entry, looked up: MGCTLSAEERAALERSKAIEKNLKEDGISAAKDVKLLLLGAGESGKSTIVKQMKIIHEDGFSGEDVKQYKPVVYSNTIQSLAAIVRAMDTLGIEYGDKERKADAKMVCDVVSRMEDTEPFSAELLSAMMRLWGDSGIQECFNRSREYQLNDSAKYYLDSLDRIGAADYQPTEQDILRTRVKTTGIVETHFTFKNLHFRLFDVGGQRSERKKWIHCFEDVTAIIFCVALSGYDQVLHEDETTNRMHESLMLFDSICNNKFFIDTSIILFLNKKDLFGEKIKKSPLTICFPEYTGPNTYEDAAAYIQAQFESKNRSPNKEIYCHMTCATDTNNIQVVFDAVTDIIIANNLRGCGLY
# Out of some 220,000 compounds screened, about 770 (0.35%) were called active. Inconclusive results, whose numbers are uncertain, are shown with a selection of clear calls. No stated cut-off is given here; in the data, active means binding response below about 49% or above about 150%; inconclusive means no clear call, values can overlap the other calls; inactive means in between.
# Molecular target: Guanine nucleotide-binding protein G(o) subunit alpha (Homo sapiens) (UniProt P09471)
# Experiment: RGS7-Galphao binding modulators, primary screen, biochemical, multiplexed bead flow cytometry (AID 1439);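 further: fluorescent Galphao held in activated GDP-AlF4 state binding bead-coupled RGS7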
# Settings: at 10 µM, actives lie on both sides
row,Compound,binding response (% of control)
1,CCCOC(=O)C[N+](C)(C)CCOC1CC2CCC1(C)C2(C)C (centres undefined),inconclusive: 104%
2,Cc1ccc(N(C)C(=O)C2CCCN2S(=O)(=O)c2ccc3c(c2)n(C)c(=O)c(=O)n3C)cc1 (centres undefined),inconclusive: 93.7%
3,CC(=O)N(c1ccc(C)cc1)c1nc(C)cc(C)c1C#N,inconclusive: 139%
4,COC(=O)n1c(=O)oc2ccc(S(=O)(=O)N3CCCCC3)cc21,inconclusive: 126%
5,COc1ccc(COCCN2CCN(S(=O)(=O)c3ccccc3)CCC2=O)cc1,inconclusive: 91.2%
6,COc1ccc(-n2c3c(c(=O)[nH]c2=O)C(NC(=O)c2ccncc2)(C(F)(F)F)C(=O)N3)cc1 (centres undefined),inactive: 92%
7,CCOC(=O)c1cnc(-n2nc(C)cc2C)nc1NNc1nc(C)cc(C)n1,inconclusive: 315%
8,COc1cc(C(O)P(=O)(OCCC(C)C)c2ccc(N(C)C)cc2)cc(OC)c1OC (centres undefined),inconclusive: 576%
9,O=C(COc1ccccc1[N+](=O)[O-])c1ccccc1,inconclusive: 81.2%
10,O=C(Nc1cc(Cl)cc(Cl)c1)N1CCCN(Cc2ccccc2)CC1,inconclusive: 103%
11,Cc1nc2ccccc2c(=O)n1/N=C/c1ccc([N+](=O)[O-])o1,inconclusive: 11.7%
12,CCOC(=O)C(NC(=O)CC)(Nc1nc2c(s1)CCCC2)C(F)(F)F (centres undefined),inactive: 107%
13,C/C(Cc1ccccc1)=N\NC(=O)CNC(=O)c1ccc(C(C)(C)C)cc1,inactive: 104%
14,O=C(c1cc2ccccc2oc1=O)N(Cc1ccc(F)cc1)C1CCS(=O)(=O)C1 (centres undefined),inconclusive: 85.6%
15,CCOC(=O)c1c(-n2cnnn2)sc2c1CCCC2,inconclusive: 102%
16,O=[N+]([O-])c1cnccc1Nc1ccc(Cl)cc1,inconclusive: 120%
17,O=C(O)Cc1c(-c2ccccc2Cl)c2cc(Br)ccc2[nH]c1=O,inconclusive: 113%
18,CCOC(=O)c1ccc(NC(=O)C2(c3ccccc3)CCCC2)cc1,inactive: 123%
19,COc1cccc(-c2c3c([nH]c(=O)c2C#N)CCc2cc(OC)ccc2-3)c1,inconclusive: 38.3%
20,C=CCOc1ccc(S(C)(=O)=O)cc1,inconclusive: 113%
21,COc1ccccc1/C=N\Nc1ccccc1[N+](=O)[O-],inconclusive: 89%
22,C=CCNC(=S)N1CCc2c([nH]c3ccccc23)C1C (centres undefined),inconclusive: 82.1%
23,COC(=O)CC1C(=O)NCCN1C(=O)OC(C)(C)C (centres undefined),inconclusive: 107%

row,Compound,binding response (% of control)
1,CCCCN(C)C1=CC2=CC(=C(C#N)C#N)CCC2CC1 (centres undefined),active: 164% [activator]
2,COc1ccc(CN(C)C(=O)c2cnc(OC)cc2C(F)(F)F)c(OC)c1,inconclusive: 161%
3,O=c1oc2c(-c3ccc([N+](=O)[O-])cc3)cc(O)cc2s1,inconclusive: 103%
4,O=C(CCc1ccccc1)Nc1cccnc1Cl,inconclusive: 134%
5,COc1cc(C2/C(=C(/O)c3ccccc3)C(=O)C(=O)N2c2ccccn2)ccc1O (centres undefined),inactive: 93.1%
6,CCOc1ccc(Oc2ccc(S(=O)(=O)N3CCOCC3)cc2N)cc1,inconclusive: 117%
7,COC/C=C/C1=CC2=CC(=O)C(C)(OC(=O)c3cnc4ccccc4n3)C(=O)C2=CN1Cc1ccc(OC)cc1 (centres undefined),inconclusive: 82.8%
8,CCOC(=O)N1CCC(n2c(SCC(=O)NCCc3ccc(S(N)(=O)=O)cc3)nc3ccccc3c2=O)CC1,inactive: 99.8%
9,N/C(=N\N=C\c1ccc([N+](=O)[O-])cc1)c1nonc1N,inconclusive: 91.4%
10,Cc1ccc(NC(=O)Cn2nnc3ccccc32)c(C)c1,inconclusive: 105%
11,CN(Cc1ccccc1NCC(=O)Nc1ccccc1C#N)C1CCCCC1,inconclusive: 84.8%
12,COc1ccc(CCNC(=S)NCCc2c[nH]c3ccccc23)cc1,inconclusive: 99.6%
13,O=C(N/N=C/c1cc(Cl)cc([N+](=O)[O-])c1O)c1cc(-c2ccccn2)nc2ccccc12,inconclusive: 62.4%
14,COC(=O)C1=C(N)Oc2cc(C)[nH]c(=O)c2C1c1ccccc1OC (centres undefined),inconclusive: 286%
15,CCCCNc1nc2sc3c(c2c(=O)n1-c1cccc(Cl)c1)CCN(C)C3,inconclusive: 108%
16,Cc1ccc(N2C(=O)C3N=NN(CC(=O)N4N=C(c5ccccc5)CC4c4ccccc4)C3C2=O)cc1 (centres undefined),inactive: 102%
17,C=C(C)C(=O)Nc1cccc(C2=NOC3(C2)C[C@H](C(N)=O)N(C(=O)CC)C3)c1 (some centres undefined),inconclusive: 87.8%
18,O=C(CCc1c[nH]c2ccccc12)Nc1ccc(S(=O)(=O)Nc2ncccn2)cc1,inconclusive: 101%
19,CCSC1=NSC2=NC(=O)/C(=C\c3coc4ccccc4c3=O)C(=N)N12,inactive: 98.6%
20,O=C(O)/C=C/C(=O)NCc1csc2ccccc12,inconclusive: 170%
21,O=C(COC(=O)Cc1cn2ccsc2n1)NC12CC3CC(CC(C3)C1)C2,inactive: 101%
22,CCN(CC(=O)NCc1cccs1)C(=O)c1ccc(S(=O)(=O)N(C)C)cc1,inconclusive: 106%
23,N=c1oc2c3c4c(cc2cc1C(=O)Nc1ccccc1)CCCN4CCC3,inactive: 99.2%

row,Compound,binding response (% of control)
1,O=C(NCCC(=O)N1CCN(c2ncccn2)CC1)c1ccccc1,inactive: 101%
2,Cc1ccc(N=C2NC(=O)/C(=C/c3cccnc3)S2)cc1C,inconclusive: 112%
3,CCCCCCOc1ccc(N2C(=O)CC(N3CCN(CCN=CC4C(=O)CC(C)(C)CC4=O)CC3)C2=O)cc1 (centres undefined),active: 158% [activator]
4,Cc1c(N(CC(=O)O)S(=O)(=O)c2ccccc2)c(=O)n(-c2ccccc2)n1C,inactive: 107%
5,O=C(NCc1csc(-c2cccs2)n1)Nc1ccc(C(F)(F)F)cc1,inconclusive: 104%
6,CN(C)S(=O)(=O)c1cccc(NC(=O)NCCCl)c1,inconclusive: -52.8%
7,CCCc1c(C(=O)Nc2ccc(F)cc2F)cnn1-c1ccccc1,inconclusive: 74.2%
8,Cc1ccc(Sc2nc3ccc(C)cn3c(=O)c2/C=N/O)cc1,inconclusive: 104%
9,Cc1ccc(C(=O)N(C)CC(=O)Nc2ccc(F)c(F)c2F)o1,inactive: 106%
10,CCCCc1cc(=O)oc2c(C)c(OCc3nn[nH]n3)ccc12,inconclusive: 101%
11,CCOC(=O)c1cnc(-n2nc(C)cc2C)nc1Oc1ccccc1F,inconclusive: 113%
12,Cc1ccc(S(=O)(=O)N(C)c2ccc(C(=O)N3CCc4ccccc4C3)cc2)cc1,inactive: 90%
13,CN1OCC(S(=O)(=O)c2ccccc2)C1c1ccccc1 (centres undefined),inconclusive: 92.6%
14,O=C(O)COc1ccc(/C=N/NC(=O)C2CCCN2S(=O)(=O)c2ccc(Cl)cc2)cc1 (centres undefined),inactive: 103%
15,COc1ccccc1N1CCN(C(=O)NC23CC4CC(CC(C4)C2)C3)CC1,inconclusive: 118%
16,N#Cc1ccc(-c2cccs2)nc1SCc1cccnc1,inconclusive: 35.1%
17,CSC1=NCCN1CCOc1ccccc1,inactive: 107%
18,O=C(Nc1ccc(N2CCOCC2)nc1N1CCOCC1)c1cccc(C(F)(F)F)c1,inconclusive: 64.6%
19,COC(C[C@H](O)CC(=O)[C@H](C)OCc1ccccc1)OC,inconclusive: 76.1%
20,O=c1c(Cl)c(N2CCC3(CC2)OCCO3)cnn1C12CC3CC(CC(C3)C1)C2,inconclusive: 131%
21,NS(=O)(=O)c1ccc(CCNC(=O)C(=O)C2C(=O)Nc3ccccc32)cc1 (centres undefined),inconclusive: 54.7%
22,CC(C)(C)c1ccc(C(=O)NN2C(=O)CSC2=S)cc1,inconclusive: 56.1%
23,CCN1CCN(CC(=O)N2N=C(c3cccs3)CC2c2ccc(C)cc2)C(=O)C1=O (centres undefined),inconclusive: 133%

row,Compound,binding response (% of control)
1,Clc1ccc(CO/N=C/c2cccs2)cc1,inconclusive: 142%
2,CC(Oc1ccc(Cl)cc1Cl)/C(N)=N/O (centres undefined),inconclusive: 220%
3,CCOC(=O)c1sc(NC(=O)C(C)Sc2nc(N)cc(=O)[nH]2)nc1C (centres undefined),inactive: 102%
4,CSc1cccc(NS(=O)(=O)c2ccc(C(C)=O)cc2)c1,inconclusive: 542%
5,COc1cc(C(CCN2CCCC2)c2c(OC)cc(OC)c3c(C)cc(=O)oc23)cc(OC)c1OC (centres undefined),inconclusive: 102%
6,CC(/C=C/c1ccccc1)=N\Nc1nc2c(c(=O)[nH]c(=O)n2C)n1CCO,inconclusive: 90.1%
7,O=C(Nc1ccccc1)Nc1csc2ccccc12,inconclusive: 114%
8,O=C(Nc1ccccn1)c1cc(-c2cccc(Cl)c2)nc2ccccc12,inconclusive: 122%
9,CC(C(=O)NCCC1=CCCCC1)c1ccc([N+](=O)[O-])cc1 (centres undefined),inconclusive: 95.5%
10,CN(C(=O)CC1C(=O)NCCN1CC1CCCCC1)C1CCOCC1 (centres undefined),inconclusive: 104%
11,COc1cccc(NC(=O)N2CCCC2C(=O)NCc2ccccc2)c1 (centres undefined),inactive: 102%
12,COc1ccc(Cl)cc1NC(=O)NCCN1CCNC1=O,inconclusive: 96.5%
13,S=c1nc(C23CC4CC(CC(C4)C2)C3)[nH][nH]1,inconclusive: 93%
14,S=C(Nc1ccccc1)Nc1ccccc1Br,inconclusive: 98.9%
15,CCN(C(=O)COC(=O)/C=C/c1cccc([N+](=O)[O-])c1)c1ccccc1,inconclusive: 97.8%
16,COc1cccc(NC(=O)c2sc(NC(=O)c3ccncc3)nc2C)c1,inconclusive: 145%
17,O=C1CCN(S(=O)(=O)c2ccccc2)CCN1CCOCc1ccccc1,inconclusive: 82%
18,COC(=O)[C@@H]1C[C@@]2(O)[C@@H](O)[C@@H](O)[C@@H](O)C[C@H]2N1C/C=C/c1ccccc1,inconclusive: 81.8%
19,CCCCc1c(C)nc2cc(-c3ccco3)[nH]n2c1=O,inconclusive: 18.7%
20,NCCNC[C@@H]1COC2(CCCCCCCCCCC2)O1,inconclusive: 96.8%

# 5 of the compounds above, bar-delimited.
row | Compound | binding response (% of control)
19 | COc1cccc(-c2c3c([nH]c(=O)c2C#N)CCc2cc(OC)ccc2-3)c1 | inconclusive: 38.3%
20 | C=CCOc1ccc(S(C)(=O)=O)cc1 | inconclusive: 113%
21 | COc1ccccc1/C=N\Nc1ccccc1[N+](=O)[O-] | inconclusive: 89%
22 | C=CCNC(=S)N1CCc2c([nH]c3ccccc23)C1C (centres undefined) | inconclusive: 82.1%
23 | COC(=O)CC1C(=O)NCCN1C(=O)OC(C)(C)C (centres undefined) | inconclusive: 107%
